# Measurements published in PubChem BioAssay AID1347075 (National Center for Advancing Translational Sciences (NCATS), 2019).
# Screen size: about 400,000 compounds; about 5,500 (1.4%) were called active. This list was built around the results that the source calls inconclusive (neither active nor inactive); the mix of calls is not that of the screen. Calls follow the shape of the dose curve; as a rule, active = well fitted cell-killing curve with a large enough effect; inconclusive = small, poorly fitted or top-dose-only effect, or effect the other way; inactive = flat fitted curve, though single readings scatter. A potency beside an inconclusive call is a rough fit, not a confirmed value.
# Assay: qHTS assay for MDR1-selective chemotherapeutics: Primary screen using the parental adenocarcinoma cell KB-3-1; also: nearly all actives have a fitted effect of over 60% in size
# Conditions: KB-3-1 viability, CellTiter-Glo ATP luminescence, 72 h; activity change, negative = cytotoxic: at 46.1 µM (top of the series)
# Method in brief: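 Using CellTiter-Glo luminescence, growth of non-resistant KB-3-1 adenocarcinoma cells is assessed 72 h after pin-tool compound addition at 37 °C. Normalized responses across the concentration series yield fitted curves.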
# % is scaled to controls: 0 for no effect and ±100 for the full control effect; potency is read from the fitted curve at half-maximal effect.
SMILES,"activity change, negative = cytotoxic",Potency
CCOc1ccc(S(=O)(=O)NCCCN2CCOCC2)c2ccccc12,inactive: 5.39%,–
COc1ccc(CNC(=O)c2cncc(Br)c2)cc1,inactive: 5.44%,–
Cc1ccc(C(O)P(=O)(OC2CCCCC2)OC2CCCCC2)cc1 (configuration not stated),inactive: -9.43%,–
Clc1ccc(Oc2ccccc2)c2ncccc12,inactive: -1.68%,–
CSc1ccccc1NC(=O)c1c(Br)cnn1C,–,"inconclusive: 16.4 µM [cytotoxic, single point]"
Cc1cc(C)cc(NC(=S)NCCN(C2CCCCC2)C2CCCC2)c1,–,"inconclusive: 10.3 µM [cytotoxic, partial curve]"
COC1=CC(=O)c2nc(Cl)ccc2C1=O,–,"inconclusive: 20.6 µM [cytotoxic, single point]"
Nc1cc(S(=O)(=O)N2CCOCC2)ccc1Oc1ccc(F)cc1,–,"inconclusive: 10.3 µM [cytotoxic, partial curve]"
CNC(CC(=O)c1ccc([N+](=O)[O-])cc1)C(Cl)(Cl)Cl (configuration not stated),–,"inconclusive: 29.1 µM [cytotoxic, single point]"
O=[N+]([O-])c1ccc(N2CCN(Cc3cccc([N+](=O)[O-])c3)CC2)cc1,inactive: -14.3%,–
O=C(/C=C/Nc1ccc(Oc2ccccc2Cl)cc1)c1ccco1,–,active: 20.6 µM
Cc1nc(Cl)cc(N/N=C/c2ccc(O)cc2O)n1,–,"inconclusive: 32.6 µM [cytotoxic, single point]"
O=[N+]([O-])c1ccc(-c2cc3ccccc3[nH]2)cc1,inactive: 6.18%,–
CCOc1ccccc1NC(=O)Nc1cnccn1,inactive: -8.71%,–
CS(=O)(=O)c1ccc(C(=O)Nc2ccc(N3CCOCC3)cc2)c(Cl)c1,inactive: -4.63%,–
CCOc1cc(C)c(S(=O)(=O)Nc2ccc3cn[nH]c3c2)cc1C,–,active: 20.6 µM
Cc1ccc(N)cc1O,inconclusive: -0.0009%,–
COc1cc(OC)c(NS(=O)(=O)c2cc(-c3cnc(C)o3)ccc2OC)cc1Cl,–,"inconclusive: 29.1 µM [cytotoxic, single point]"
CCCC1=Nc2cc(C(=O)NCCc3ccc(OC)cc3OC)ccc2Sc2ccccc21,–,"inconclusive: 18.4 µM [cytotoxic, single point]"
CCCc1ccc(OCC(=O)NNC(=S)NC(=O)c2ccco2)cc1,–,"inconclusive: 29.1 µM [cytotoxic, single point]"
O=C(Cn1c2c(sc1=O)C1c3ccccc3OCC1CS2)Nc1ccc(Cl)c(Cl)c1 (configuration not stated),–,active: 16.4 µM
C(=N\Nc1nc(-c2ccccc2)cs1)/c1cccnc1,–,"inconclusive: 20.6 µM [cytotoxic, single point]"
Cc1ccccc1OCCOc1ccc([N+](=O)[O-])cc1/C=N/n1cnnc1,–,"inconclusive: 14.6 µM [cytotoxic, partial curve, poor fit]"
Cc1ccc(NC(=O)C2CCN(c3ncnc4c3nc3n4CCCCC3)CC2)nc1,–,"inconclusive: 23.1 µM [cytotoxic, single point]"

SMILES,"activity change, negative = cytotoxic",Potency
Cc1ccc(S(=O)(=O)N2CCN(CCC#N)CC2)cc1,–,"inconclusive: 16.4 µM [rising, partial curve, poor fit]"
O=S(=O)(Nc1ccc(N2CCOCC2)cc1)c1ccc(F)cc1F,–,"inconclusive: 0.13 µM [rising, full curve]"
CCN(C(=O)C(=O)c1c(C)[nH]c2ccccc12)c1ccccc1,inactive: 0%,–
CCCOc1c(Br)cc(C(=O)OCc2cc(=O)n3ccsc3n2)cc1OC,–,"inconclusive: 3.26 µM [cytotoxic, partial curve, poor fit]"
O=C(N/N=C/c1cc(Br)ccc1OC(=O)c1ccc(Br)cc1)c1ccncc1,–,"inconclusive: 14.6 µM [cytotoxic, partial curve]"
Cc1cc(NC2CCCCC2)nc2ccccc12,–,"inconclusive: 20.6 µM [cytotoxic, single point]"
COc1cccc(C(c2c(C)[nH]n(-c3ccccc3)c2=O)c2c(C)[nH]n(-c3ccccc3)c2=O)c1OC,inactive: 2.58%,–
CC(C)OC(=O)NCCOC(=O)Nc1cccc(Cl)c1,–,"inconclusive: 25.9 µM [cytotoxic, partial curve, poor fit]"
Cc1cccc(N=C2NC(=O)/C(=C/c3cn(C)c4ccccc34)S2)c1,–,"inconclusive: 29.1 µM [cytotoxic, single point]"
COc1ccc(NC(=O)c2sc3nc4n(c(=O)c3c2C)CCC4)cc1Cl,inactive: -6.62%,–
c1ccc(COc2ccc(OCCn3cncn3)cc2)cc1,inactive: 0%,–
Cc1ccc(-c2nnc3ccc(SCC(=O)NCc4ccco4)nn23)cc1,inactive: -12.3%,–
Cc1cccc(Nc2ccccc2C(=O)NCc2ccco2)c1C,–,"inconclusive: 23.1 µM [cytotoxic, single point]"
C=C1C(=O)[C@]23C[C@H]1CC[C@H]2[C@]1(C)[C@@H](OC(C)=O)CC[C@@](C)(C(=O)OC)[C@H]1C[C@@H]3OC(C)=O,–,"inconclusive: 29.1 µM [cytotoxic, single point]"
CCOc1ccc2nc(N=NC3=C(O)CC(C)(C)CC3=O)sc2c1,–,"inconclusive: 23.1 µM [cytotoxic, single point]"
O=C1NC[C@H](Cc2ccccc2)N(C[C@H]2CCCN2C[C@H](Cc2ccccc2)N2C[C@H](Cc3ccccc3)N(CCc3ccccc3)C(=O)C2=O)C1=O,–,"inconclusive: 29.1 µM [cytotoxic, single point]"
CCOC(=O)c1sc(NC(=O)c2ccc(S(=O)(=O)N3CCOCC3)cc2)cc1C,–,"inconclusive: 29.1 µM [cytotoxic, single point]"
COc1cc(-n2c(C)nc3cc(C(=O)NCC4CCCO4)ccc32)cc(OC)c1OC (configuration not stated),–,"inconclusive: 9.2 µM [rising, partial curve, poor fit]"
Oc1cc(NCCc2cccnc2)cc2cccnc12,–,"inconclusive: 25.9 µM [cytotoxic, single point]"
CCCN(CCC)CCCNc1ccc2nnc(-c3ccc(F)cc3)n2n1,–,"inconclusive: 29.1 µM [rising, single point]"
O=C(NCc1ccccc1)c1c(Cl)nc(Cl)c(Cl)c1Cl,–,active: 16.4 µM
Cc1nc2ccc(S(=O)(=O)NCC(=O)Nc3ccc(F)cc3)cc2s1,inactive: 0.0377%,–
CCOc1ccccc1C(=O)Nc1ccsc1C(=O)OC,–,active: 5.8 µM
O=C(NCc1ccccn1)c1ccc(COc2ccc(Cl)cc2)o1,inactive: 0.0115%,–

# Single records (already shown):
# CCN(C(=O)C(=O)c1c(C)[nH]c2ccccc12)c1ccccc1 is entered as activity change, negative = cytotoxic: inactive: 0%
# Cc1cccc(N=C2NC(=O)/C(=C/c3cn(C)c4ccccc34)S2)c1 is entered as Potency: inconclusive: 29.1 µM [cytotoxic, single point]
# Nc1cc(S(=O)(=O)N2CCOCC2)ccc1Oc1ccc(F)cc1 is entered as Potency: inconclusive: 10.3 µM [cytotoxic, partial curve]
# O=C(NCc1ccccn1)c1ccc(COc2ccc(Cl)cc2)o1 is entered as activity change, negative = cytotoxic: inactive: 0.0115%

# Following part.

SMILES,"activity change, negative = cytotoxic",Potency
Cc1ccc2oc(=O)n(CCCOc3ccc(Cl)cc3)c2c1,–,"inconclusive: 0.0058 µM [cytotoxic, full curve, poor fit]"
CCOC(=O)c1cc(-c2ccc(C)cc2)n(CCC(=O)Nc2ccc(C(C)C)cc2)c1C,–,active: 18.4 µM
Oc1ccc(Cl)cc1/C=C/c1ccc2cccc(O)c2n1,–,"inconclusive: 18.4 µM [cytotoxic, partial curve, poor fit]"
Cc1ccc(Cl)cc1NC(=O)CC(O)(C(F)(F)F)C(F)(F)F,–,"inconclusive: 18.4 µM [cytotoxic, single point]"
Cc1cnc(NC(=O)c2cccs2)s1,–,"inconclusive: 29.1 µM [cytotoxic, single point]"
O=C(Nc1ccc(Cc2nc3ccccc3s2)cc1)c1ccncc1,–,active: 16.4 µM
O=C(COC(=O)CC(c1ccccc1)c1ccccc1)NCc1ccccc1,–,"inconclusive: 0.0073 µM [rising, full curve]"
CC1CCC(C(C)C)C(OCC(O)CN2CCOCC2)C1 (configuration not stated),–,"inconclusive: 0.517 µM [rising, full curve]"
O=C(Nc1ccc2nc(-c3cccs3)[nH]c2c1)c1cccs1,–,"inconclusive: 29.1 µM [cytotoxic, single point]"
CCc1ccc(NC(=O)Nc2cccs2)cc1,inactive: -8.6%,–
O=C(O)CS(=O)(=O)c1ccc(Oc2ccc(S(=O)(=O)CC(=O)O)cc2)cc1,inactive: -1.22%,–
COc1cccc(-c2nc(CS(=O)(=O)CC(=O)NCC(C)c3ccccc3)c(C)o2)c1 (configuration not stated),–,"inconclusive: 8.2 µM [cytotoxic, partial curve]"
Cc1cc(S(=O)(=O)c2ccc(Cl)cc2)nc(S(=O)(=O)c2ccc(Cl)cc2)c1C#N,–,active: 9.2 µM
COc1ccc(N=C2NN=C(c3c(C)[nH]c4ccccc34)CS2)cc1,–,"inconclusive: 25.9 µM [cytotoxic, single point]"
CCN(CCNC(=O)Nc1ccc(Cl)cc1)c1ccccc1,–,"inconclusive: 23.1 µM [cytotoxic, single point]"
CCCCc1c(-c2ccccc2OC)ncn1Cc1ccc(Cl)cc1,–,"inconclusive: 29.1 µM [cytotoxic, single point]"
COc1ccc(-c2cc(-c3ccccc3)c(C#N)c(S(C)(=O)=O)n2)cc1,–,"inconclusive: 18.4 µM [cytotoxic, single point]"
O=c1[nH]c(=O)n(Cc2ccco2)c2c1C(C(F)(F)F)(C(F)(F)F)N=C(c1ccc(F)cc1)N2,–,"inconclusive: 3.26 µM [cytotoxic, partial curve, poor fit]"
CC1(C)c2[nH]c3ccccc3c2C[C@@H]2C(=O)N(Cc3ccccc3)C(=O)N21,inactive: -2.22%,–
O=c1c2ccccc2sn1-c1ccc(Cl)cc1Cl,–,"inconclusive: 23.1 µM [cytotoxic, single point]"
O=C(CCl)Nc1cccc(S(=O)(=O)NC2=NCCC2)c1,–,active: 18.4 µM
Cc1ccc(S(=O)(=O)N2CCC(=O)N(C(COCc3cccc(C(F)(F)F)c3)C(C)C)CC2)cc1 (configuration not stated),–,"inconclusive: 29.1 µM [cytotoxic, single point]"
Cc1csc[n+]1CCC1CCCCC1,–,"inconclusive: 16.4 µM [cytotoxic, single point]"
O=C(c1ccc(CSc2nc3ccncc3n2Cc2cccc(F)c2)cc1)N1CCCCC1,–,"inconclusive: 29.1 µM [cytotoxic, single point]"
